According to the M2OR odorant receptor database:
Residue numbers refer to the chain shown, from its start. The entries are a selection whose mix differs from that of the whole data set. Calls are pooled over several reports, among them a noisy single-well screen. The list shows a part of the results. The list shows a part of the results.

Chains of the proteins cited; added tags and fusions are not shown. Lines headed by an entry give the natural chain unless they say otherwise; changes in a name come on top. A line that says so, or that is headed by a name, gives the form on record, which may keep a tag or linker.
UniProt Q8NGL6: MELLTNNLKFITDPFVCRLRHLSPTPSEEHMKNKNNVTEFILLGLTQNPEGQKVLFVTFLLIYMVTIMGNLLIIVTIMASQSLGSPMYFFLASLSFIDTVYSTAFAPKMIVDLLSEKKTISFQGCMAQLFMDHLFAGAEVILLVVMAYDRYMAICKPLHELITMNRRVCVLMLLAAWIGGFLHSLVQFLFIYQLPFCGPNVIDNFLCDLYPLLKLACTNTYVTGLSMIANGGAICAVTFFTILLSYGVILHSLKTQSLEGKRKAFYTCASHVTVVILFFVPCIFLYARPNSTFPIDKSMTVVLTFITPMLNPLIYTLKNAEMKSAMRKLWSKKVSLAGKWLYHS
UniProt P0C604: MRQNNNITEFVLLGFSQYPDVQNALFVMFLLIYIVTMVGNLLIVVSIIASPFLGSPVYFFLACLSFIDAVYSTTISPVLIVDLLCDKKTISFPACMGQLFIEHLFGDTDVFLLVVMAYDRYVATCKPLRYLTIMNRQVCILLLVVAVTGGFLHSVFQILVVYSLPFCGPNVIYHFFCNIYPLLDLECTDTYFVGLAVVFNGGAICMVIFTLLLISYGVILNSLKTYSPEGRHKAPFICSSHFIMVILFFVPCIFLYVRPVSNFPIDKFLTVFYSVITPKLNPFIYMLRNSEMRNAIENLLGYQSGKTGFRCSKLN
OR2W1, as listed by the source: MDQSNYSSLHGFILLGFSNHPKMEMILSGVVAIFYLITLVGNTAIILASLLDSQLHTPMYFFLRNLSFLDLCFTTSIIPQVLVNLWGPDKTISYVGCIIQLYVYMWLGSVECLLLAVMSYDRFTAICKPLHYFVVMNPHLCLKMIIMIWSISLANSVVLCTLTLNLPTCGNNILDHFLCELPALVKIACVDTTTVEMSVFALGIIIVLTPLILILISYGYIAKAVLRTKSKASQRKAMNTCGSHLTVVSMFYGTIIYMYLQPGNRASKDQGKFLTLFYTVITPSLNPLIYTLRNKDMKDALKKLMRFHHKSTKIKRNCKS

Assays:
Conditions in all cases: stereoisomer not certain
OR2W1 [1] = tested on: T1, OR2W1
T1 sequence (whole entry): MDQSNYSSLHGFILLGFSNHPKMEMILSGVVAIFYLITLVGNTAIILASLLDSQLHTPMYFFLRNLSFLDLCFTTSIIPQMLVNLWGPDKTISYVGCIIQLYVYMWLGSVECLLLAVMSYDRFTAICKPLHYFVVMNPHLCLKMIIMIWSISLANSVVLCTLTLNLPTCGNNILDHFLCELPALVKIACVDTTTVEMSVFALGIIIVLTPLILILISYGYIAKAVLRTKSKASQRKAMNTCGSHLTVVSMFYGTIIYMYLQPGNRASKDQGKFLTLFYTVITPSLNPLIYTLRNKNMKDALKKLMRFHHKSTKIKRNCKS
How it was run: (§1)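 Assay methods differ from source to source, frequently being transient luciferase assays in mammalian cell lines. For each receptor–molecule pair, the label responsive (active) applies when the original authors judged the measured signal statistically different from baseline, and non-responsive (inactive) applies otherwise.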

OR2W3 (Homo sapiens) = target: T2, OR2W3 (Homo sapiens) (UniProt Q7Z3T1)
T2 sequence (whole entry): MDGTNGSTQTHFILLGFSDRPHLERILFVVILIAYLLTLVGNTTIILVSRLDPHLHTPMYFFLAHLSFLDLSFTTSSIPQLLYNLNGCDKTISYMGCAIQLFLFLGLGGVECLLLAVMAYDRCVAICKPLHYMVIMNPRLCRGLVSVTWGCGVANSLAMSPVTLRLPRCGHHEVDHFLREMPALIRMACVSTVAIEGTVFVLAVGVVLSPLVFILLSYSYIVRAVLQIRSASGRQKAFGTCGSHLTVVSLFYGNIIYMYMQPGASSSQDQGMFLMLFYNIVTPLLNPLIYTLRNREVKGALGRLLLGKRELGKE
How it was run: as §1

OR2W3 = tested on: T3, OR2W3
T3 sequence (whole entry): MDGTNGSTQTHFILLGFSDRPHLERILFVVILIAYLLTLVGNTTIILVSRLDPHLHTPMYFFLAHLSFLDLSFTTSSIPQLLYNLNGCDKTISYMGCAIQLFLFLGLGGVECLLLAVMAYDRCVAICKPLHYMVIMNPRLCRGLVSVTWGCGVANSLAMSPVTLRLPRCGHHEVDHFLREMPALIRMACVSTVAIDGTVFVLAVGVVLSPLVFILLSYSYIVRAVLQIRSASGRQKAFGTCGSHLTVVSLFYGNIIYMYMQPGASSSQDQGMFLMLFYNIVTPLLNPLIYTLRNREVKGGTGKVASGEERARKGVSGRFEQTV
How it was run: as §1

OR2W5P (Homo sapiens) = target: T4, OR2W5P (Homo sapiens) (UniProt A6NFC9)
T4 sequence (whole entry): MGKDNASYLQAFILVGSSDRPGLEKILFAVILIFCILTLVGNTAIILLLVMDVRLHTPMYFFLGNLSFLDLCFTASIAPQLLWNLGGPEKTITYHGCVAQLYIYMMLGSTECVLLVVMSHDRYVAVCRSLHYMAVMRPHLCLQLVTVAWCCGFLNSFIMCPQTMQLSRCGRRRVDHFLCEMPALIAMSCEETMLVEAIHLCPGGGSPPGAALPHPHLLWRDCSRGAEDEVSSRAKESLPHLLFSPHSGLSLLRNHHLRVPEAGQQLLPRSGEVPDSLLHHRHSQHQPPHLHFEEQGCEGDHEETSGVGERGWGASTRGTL
How it was run: as §1

OR2Y1 (Homo sapiens) = OR2Y1 (Homo sapiens) (UniProt Q8NGV0)
How it was run: as §1

OR2Y1 = tested on: T5, OR2Y1
T5 sequence (whole entry): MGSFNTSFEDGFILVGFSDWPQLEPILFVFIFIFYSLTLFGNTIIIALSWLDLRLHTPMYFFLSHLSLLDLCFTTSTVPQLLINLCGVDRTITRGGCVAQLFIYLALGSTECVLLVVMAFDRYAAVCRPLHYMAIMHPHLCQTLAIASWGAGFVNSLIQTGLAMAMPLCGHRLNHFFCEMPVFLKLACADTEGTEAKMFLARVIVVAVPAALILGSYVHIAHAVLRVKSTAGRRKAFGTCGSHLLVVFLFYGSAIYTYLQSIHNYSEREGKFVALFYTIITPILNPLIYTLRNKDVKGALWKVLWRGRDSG
How it was run: as §1

OR2Z1 (Homo sapiens) = target: T6, OR2Z1 (Homo sapiens) (UniProt Q8NG97)
T6 sequence (whole entry): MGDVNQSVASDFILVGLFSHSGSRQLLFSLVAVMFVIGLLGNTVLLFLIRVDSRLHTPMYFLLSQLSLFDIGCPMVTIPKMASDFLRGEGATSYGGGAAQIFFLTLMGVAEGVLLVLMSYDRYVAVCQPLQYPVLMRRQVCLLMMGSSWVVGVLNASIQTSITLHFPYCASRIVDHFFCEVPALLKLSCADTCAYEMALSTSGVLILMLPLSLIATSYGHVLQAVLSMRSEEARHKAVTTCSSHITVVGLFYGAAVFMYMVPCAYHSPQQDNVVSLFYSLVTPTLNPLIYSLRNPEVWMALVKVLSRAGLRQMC
How it was run: as §1

OR3A1 (Homo sapiens) = target: T7, OR3A1 (Homo sapiens) (UniProt P47881)
T7 sequence (whole entry): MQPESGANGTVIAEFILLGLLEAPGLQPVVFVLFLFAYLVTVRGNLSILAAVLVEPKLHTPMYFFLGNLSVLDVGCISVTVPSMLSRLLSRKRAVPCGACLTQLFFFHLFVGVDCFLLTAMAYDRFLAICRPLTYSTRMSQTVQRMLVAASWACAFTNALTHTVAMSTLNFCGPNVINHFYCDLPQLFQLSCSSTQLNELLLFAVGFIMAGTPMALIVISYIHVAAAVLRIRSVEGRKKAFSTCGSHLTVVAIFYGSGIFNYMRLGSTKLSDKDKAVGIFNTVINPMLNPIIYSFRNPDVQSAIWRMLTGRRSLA
How it was run: as §1

OR3A2 (Homo sapiens) = target: T8, OR3A2 (Homo sapiens) (UniProt P47893)
T8 sequence (whole entry): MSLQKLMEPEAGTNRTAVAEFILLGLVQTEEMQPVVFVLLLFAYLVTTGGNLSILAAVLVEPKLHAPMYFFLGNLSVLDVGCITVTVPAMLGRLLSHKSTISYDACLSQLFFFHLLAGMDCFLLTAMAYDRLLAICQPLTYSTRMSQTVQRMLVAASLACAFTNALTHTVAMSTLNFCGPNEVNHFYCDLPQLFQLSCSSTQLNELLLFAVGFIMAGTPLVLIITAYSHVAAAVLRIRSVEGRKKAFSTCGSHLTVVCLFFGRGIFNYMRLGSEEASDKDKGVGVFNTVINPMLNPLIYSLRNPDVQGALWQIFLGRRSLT
How it was run: as §1

OR3A3 = tested on: T9, OR3A3
T9 sequence (whole entry): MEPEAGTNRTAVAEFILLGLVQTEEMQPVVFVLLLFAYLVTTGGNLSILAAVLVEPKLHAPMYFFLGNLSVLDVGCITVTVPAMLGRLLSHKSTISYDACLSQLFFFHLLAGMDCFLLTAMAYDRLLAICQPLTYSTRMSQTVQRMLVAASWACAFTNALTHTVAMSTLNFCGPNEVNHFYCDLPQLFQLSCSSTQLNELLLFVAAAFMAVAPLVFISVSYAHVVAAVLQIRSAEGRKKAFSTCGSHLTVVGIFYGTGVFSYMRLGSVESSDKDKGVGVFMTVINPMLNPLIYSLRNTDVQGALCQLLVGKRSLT
How it was run: as §1

OR3A4 = tested on: T10, OR3A4
T10 sequence (whole entry): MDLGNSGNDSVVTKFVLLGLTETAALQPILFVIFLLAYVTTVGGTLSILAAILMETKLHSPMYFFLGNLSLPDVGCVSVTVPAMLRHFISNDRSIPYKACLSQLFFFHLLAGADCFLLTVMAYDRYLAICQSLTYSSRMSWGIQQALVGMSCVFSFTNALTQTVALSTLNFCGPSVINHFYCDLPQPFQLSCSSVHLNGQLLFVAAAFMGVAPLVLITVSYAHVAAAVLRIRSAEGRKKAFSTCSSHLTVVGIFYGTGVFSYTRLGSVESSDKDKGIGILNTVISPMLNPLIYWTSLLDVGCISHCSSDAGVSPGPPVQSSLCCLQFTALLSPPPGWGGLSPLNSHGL
How it was run: as §1

OR4A15 (Homo sapiens) = OR4A15 (Homo sapiens) (UniProt Q8NGL6)
How it was run: as §1

OR4A16 (Homo sapiens) = target: T11, OR4A16 (Homo sapiens) (UniProt Q8NH70)
T11 sequence (whole entry): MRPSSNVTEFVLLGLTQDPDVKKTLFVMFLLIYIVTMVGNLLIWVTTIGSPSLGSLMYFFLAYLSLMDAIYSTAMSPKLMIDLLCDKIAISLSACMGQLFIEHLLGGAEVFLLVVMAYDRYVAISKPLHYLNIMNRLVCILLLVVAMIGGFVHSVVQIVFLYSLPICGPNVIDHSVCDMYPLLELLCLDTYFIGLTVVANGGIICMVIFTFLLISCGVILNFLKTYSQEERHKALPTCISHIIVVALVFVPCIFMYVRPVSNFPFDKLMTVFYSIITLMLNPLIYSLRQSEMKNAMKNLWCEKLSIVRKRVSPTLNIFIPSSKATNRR
How it was run: as §1

OR4A5 (Homo sapiens) = target: T12, OR4A5 (Homo sapiens) (UniProt Q8NH83)
T12 sequence (whole entry): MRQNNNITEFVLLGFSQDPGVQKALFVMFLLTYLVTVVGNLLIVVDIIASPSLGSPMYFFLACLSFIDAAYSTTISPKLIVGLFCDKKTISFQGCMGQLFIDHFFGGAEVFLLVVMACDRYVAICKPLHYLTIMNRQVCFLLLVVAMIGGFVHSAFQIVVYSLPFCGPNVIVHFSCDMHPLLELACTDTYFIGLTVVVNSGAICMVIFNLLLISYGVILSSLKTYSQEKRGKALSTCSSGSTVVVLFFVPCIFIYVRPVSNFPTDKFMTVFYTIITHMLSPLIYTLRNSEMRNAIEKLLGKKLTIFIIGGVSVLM
How it was run: as §1

OR4A5 = tested on: T13, OR4A5
T13 sequence (whole entry): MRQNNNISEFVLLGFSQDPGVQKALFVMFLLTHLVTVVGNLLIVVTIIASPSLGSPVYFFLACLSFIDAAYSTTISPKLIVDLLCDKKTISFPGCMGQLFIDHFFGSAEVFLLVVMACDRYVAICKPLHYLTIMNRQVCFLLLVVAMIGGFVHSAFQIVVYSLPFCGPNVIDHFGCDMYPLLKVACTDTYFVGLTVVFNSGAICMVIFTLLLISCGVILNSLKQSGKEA
How it was run: as §1

OR4A8 (Homo sapiens) = OR4A8 (Homo sapiens) (UniProt P0C604)
How it was run: as §1

OR4C11 (Homo sapiens) = target: T14, OR4C11 (Homo sapiens) (UniProt Q6IEV9)
T14 sequence (whole entry): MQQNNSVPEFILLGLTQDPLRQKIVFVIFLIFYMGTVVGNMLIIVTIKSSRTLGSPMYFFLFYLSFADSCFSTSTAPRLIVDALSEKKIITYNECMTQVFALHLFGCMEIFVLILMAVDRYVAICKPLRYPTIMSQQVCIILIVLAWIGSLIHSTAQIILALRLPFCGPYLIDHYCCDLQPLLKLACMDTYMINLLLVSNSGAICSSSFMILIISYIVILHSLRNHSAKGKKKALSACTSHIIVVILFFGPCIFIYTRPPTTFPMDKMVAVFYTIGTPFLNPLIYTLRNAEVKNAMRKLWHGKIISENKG
How it was run: as §1

OR2W1 [2] = tested on: T15, OR2W1; remark: listed apart in the source
T15 sequence (whole entry): T1 sequence (whole entry) with M81V, N296D
How it was run: as §1

OR4A4P (Homo sapiens) = target: T16, OR4A4P (Homo sapiens) (UniProt Q8NGN8)
T16 sequence (whole entry): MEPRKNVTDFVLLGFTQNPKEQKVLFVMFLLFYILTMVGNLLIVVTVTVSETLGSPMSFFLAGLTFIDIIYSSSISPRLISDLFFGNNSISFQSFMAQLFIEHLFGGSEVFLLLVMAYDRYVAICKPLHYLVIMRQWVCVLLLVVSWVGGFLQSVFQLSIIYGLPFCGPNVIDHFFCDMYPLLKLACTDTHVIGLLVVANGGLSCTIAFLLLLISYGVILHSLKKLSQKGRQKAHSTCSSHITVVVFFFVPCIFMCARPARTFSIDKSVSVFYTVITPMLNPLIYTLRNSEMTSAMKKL
How it was run: as §1

OR4B1 (Homo sapiens) = target: T17, OR4B1 (Homo sapiens) (UniProt Q8NGF8)
T17 sequence (whole entry): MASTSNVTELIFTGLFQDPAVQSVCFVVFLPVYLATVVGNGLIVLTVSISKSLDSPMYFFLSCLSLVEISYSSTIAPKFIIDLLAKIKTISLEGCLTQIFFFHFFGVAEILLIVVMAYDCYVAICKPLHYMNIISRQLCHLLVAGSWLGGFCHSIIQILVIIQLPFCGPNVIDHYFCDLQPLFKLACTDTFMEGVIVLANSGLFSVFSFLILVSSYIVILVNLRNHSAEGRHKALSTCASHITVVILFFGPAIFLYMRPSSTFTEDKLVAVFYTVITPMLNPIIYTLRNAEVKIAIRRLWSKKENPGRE
How it was run: as §1

Measured: odorant receptor agonist call

CC12C=CCC1C1CCC3CC(=O)CCC3(C)C1CC2 (stereo not drawn)
active: OR4A5
not listed: OR2W1 [2] | OR4A4P (Homo sapiens) | OR4B1 (Homo sapiens)
inactive: all other assays above

CC1=CCC(C(C)(C)O)CC1 (stereo not drawn)
active: OR2W1 [1]
not listed: OR2W3 (Homo sapiens) | OR2Y1 (Homo sapiens) | OR4A15 (Homo sapiens) | OR4A8 (Homo sapiens)
inactive: all other assays above

CC(=O)OC1CC2CCC1(C)C2(C)C (stereo not drawn)
not listed: OR2W3 (Homo sapiens) | OR2Y1 (Homo sapiens) | OR4A15 (Homo sapiens) | OR4A8 (Homo sapiens) | OR2W1 [2]
inactive: all other assays above

C=CCc1ccc(OC)c(OC)c1
not listed: OR2W3 (Homo sapiens) | OR2Y1 (Homo sapiens) | OR4A15 (Homo sapiens) | OR4A8 (Homo sapiens) | OR2W1 [2]
inactive: all other assays above

C=CCc1ccc(OC(C)=O)c(OC)c1
active: OR2W1 [1] | OR3A3 | OR3A4 | OR4A5 (Homo sapiens)
not listed: OR2W3 (Homo sapiens) | OR2Y1 (Homo sapiens) | OR4A15 (Homo sapiens) | OR4A8 (Homo sapiens) | OR2W1 [2]
inactive: all other assays above
